{"source": "paper PMC514542", "key": {"[1]": {"molecular_target": "histone deacetylase 1 (HDAC1), endogenous (human (endogenous in U2OS and 293)) (UniProt Q13547)", "experiment": "co-IP; HDAC1 immunoprecipitated with an HDAC1-specific rabbit polyclonal antibody and protein G sepharose from nuclear extracts (U2OS untransfected; 293 transfected), RNAse/DNAse-treated, buffer D (20 mM Hepes pH 7.9, 150 mM NaCl), 1 h at 4°C; partner detected by western blot"}, "myc-tagged p68": {"molecular_target": "myc-tagged p68 (UniProt P17844)", "experiment": "co-IP; myc-tagged p68/p72 immunoprecipitated with the myc epitope antibody from nuclear extracts of transfected 293 cells, RNAse/DNAse-treated, buffer D (150 mM NaCl), 1 h at 4°C; HDAC1 detected by western blot"}, "myc-tagged p72": {"molecular_target": "myc-tagged p72 (UniProt Q92841)", "experiment": "co-IP; myc-tagged p68/p72 immunoprecipitated with the myc epitope antibody from nuclear extracts of transfected 293 cells, RNAse/DNAse-treated, buffer D (150 mM NaCl), 1 h at 4°C; HDAC1 detected by western blot"}}, "note": "These are yes or no findings as the source states them, for the method shown. Binding seen in cells or lysates may run through a third protein. Some results given as binding are weak or reduced against the parent protein; the word gives no strength."}
{"substance": "GAL4-tagged p68 deletion derivative, residues 1-478 (from UniProt P17844 1-478) (domain or fragment)", "values": [{"measurement": "binding", "setting": "[1]", "result": "binds"}]}
{"substance": "GAL4-tagged p72 deletion derivative, residues 1-474 (from UniProt Q92841-1 1-474) (domain or fragment)", "values": [{"measurement": "binding", "setting": "[1]", "result": "binds"}]}
{"substance": "histone deacetylase 1 (HDAC1), endogenous (from UniProt Q13547 1-482)", "values": [{"measurement": "binding", "setting": "myc-tagged p68", "result": "binds"}, {"measurement": "binding", "setting": "myc-tagged p72", "result": "binds"}]}
{"substance": "myc-tagged p72 (from UniProt Q92841-1 1-650)", "values": [{"measurement": "binding", "setting": "[1]", "result": "binds"}]}
{"substance": "p68 (Ddx5) DEAD box RNA helicase, endogenous (from UniProt P17844 1-614)", "values": [{"measurement": "binding", "setting": "[1]", "result": "binds"}]}
